This experiment concerns the target T1, APBB1 (amyloid β precursor protein binding family B member 1) (human (endogenous in human SSC line)) (UniProt O00213).
T1 sequence: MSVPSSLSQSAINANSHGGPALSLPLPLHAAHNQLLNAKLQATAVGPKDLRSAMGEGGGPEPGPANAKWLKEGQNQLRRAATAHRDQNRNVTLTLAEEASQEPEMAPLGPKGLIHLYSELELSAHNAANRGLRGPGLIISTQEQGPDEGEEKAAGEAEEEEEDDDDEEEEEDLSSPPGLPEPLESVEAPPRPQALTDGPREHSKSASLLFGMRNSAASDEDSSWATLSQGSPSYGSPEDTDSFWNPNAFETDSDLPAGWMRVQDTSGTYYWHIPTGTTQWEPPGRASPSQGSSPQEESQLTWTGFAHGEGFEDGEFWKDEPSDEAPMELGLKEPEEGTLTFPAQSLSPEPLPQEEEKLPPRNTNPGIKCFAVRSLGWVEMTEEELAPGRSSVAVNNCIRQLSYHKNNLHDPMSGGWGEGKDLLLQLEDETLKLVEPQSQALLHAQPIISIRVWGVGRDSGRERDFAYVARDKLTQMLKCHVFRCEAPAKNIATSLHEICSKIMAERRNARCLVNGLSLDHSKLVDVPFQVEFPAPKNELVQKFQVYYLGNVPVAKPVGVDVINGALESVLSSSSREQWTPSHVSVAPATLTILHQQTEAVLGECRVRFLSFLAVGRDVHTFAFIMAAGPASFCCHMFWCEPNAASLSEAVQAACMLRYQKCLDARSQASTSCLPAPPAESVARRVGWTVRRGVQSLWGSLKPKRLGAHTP
Nature of the experiment: co-IP; human SSC line lysed in RIPA buffer; lysate incubated with primary antibody or control rabbit IgG overnight at 4 °C, protein G magnetic beads 2 h at 4 °C, Western blot; which protein was precipitated not given.

Chains of the proteins cited; added tags and fusions are not shown.
UniProt Q92993: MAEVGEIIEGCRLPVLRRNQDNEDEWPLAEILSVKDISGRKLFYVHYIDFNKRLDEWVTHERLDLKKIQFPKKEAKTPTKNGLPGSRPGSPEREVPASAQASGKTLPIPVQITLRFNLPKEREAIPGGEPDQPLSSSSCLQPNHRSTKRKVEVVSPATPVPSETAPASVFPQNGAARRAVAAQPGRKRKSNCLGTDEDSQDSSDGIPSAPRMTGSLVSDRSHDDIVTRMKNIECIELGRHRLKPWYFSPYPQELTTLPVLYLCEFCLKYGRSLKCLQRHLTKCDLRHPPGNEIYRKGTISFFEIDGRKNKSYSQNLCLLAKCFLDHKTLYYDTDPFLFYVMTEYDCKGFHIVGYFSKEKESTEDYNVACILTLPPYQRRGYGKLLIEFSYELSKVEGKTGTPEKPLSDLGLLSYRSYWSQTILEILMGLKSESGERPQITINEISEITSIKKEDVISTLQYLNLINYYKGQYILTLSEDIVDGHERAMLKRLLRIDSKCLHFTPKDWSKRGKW

Results are given in words; binding and its absence hold for the method and conditions named. In cells and extracts the contact can be indirect. Some results given as binding are weak or reduced against the parent protein; the word gives no strength.

KAT5 (from UniProt Q92993 1-513): the binding entry is “binds”.

These data come from publication PMC11948500.
